Substitutions are numbered along the chain they refer to. The exact form of at least one protein or probe is not confirmed. A weaker result is weaker than the reference pair of the same experiment. For part of these data: At least one verdict rests on a figure or table, not on a statement of the authors. Tags and fusion partners may be left off the protein sequences shown.
Tests used:
[1] = biological target: T1, exo1-D173A (Saccharomyces cerevisiae) (UniProt P39875); assay: filter binding; conditions: no added metal, 0.01 mM EDTA, 15 nM DNA, 35 mM NaCl, 20 mM Tris pH 7.5, 0.04 mg/ml BSA, 0.1 mM DTT, 60 ul, 10 min at 30 C, KOH-treated nitrocellulose filter binding, recombinant protein, protein details: FLAG, label: 5'-32P on AO3144 (8% labeled)
T1 sequence (looked up, limits assumed): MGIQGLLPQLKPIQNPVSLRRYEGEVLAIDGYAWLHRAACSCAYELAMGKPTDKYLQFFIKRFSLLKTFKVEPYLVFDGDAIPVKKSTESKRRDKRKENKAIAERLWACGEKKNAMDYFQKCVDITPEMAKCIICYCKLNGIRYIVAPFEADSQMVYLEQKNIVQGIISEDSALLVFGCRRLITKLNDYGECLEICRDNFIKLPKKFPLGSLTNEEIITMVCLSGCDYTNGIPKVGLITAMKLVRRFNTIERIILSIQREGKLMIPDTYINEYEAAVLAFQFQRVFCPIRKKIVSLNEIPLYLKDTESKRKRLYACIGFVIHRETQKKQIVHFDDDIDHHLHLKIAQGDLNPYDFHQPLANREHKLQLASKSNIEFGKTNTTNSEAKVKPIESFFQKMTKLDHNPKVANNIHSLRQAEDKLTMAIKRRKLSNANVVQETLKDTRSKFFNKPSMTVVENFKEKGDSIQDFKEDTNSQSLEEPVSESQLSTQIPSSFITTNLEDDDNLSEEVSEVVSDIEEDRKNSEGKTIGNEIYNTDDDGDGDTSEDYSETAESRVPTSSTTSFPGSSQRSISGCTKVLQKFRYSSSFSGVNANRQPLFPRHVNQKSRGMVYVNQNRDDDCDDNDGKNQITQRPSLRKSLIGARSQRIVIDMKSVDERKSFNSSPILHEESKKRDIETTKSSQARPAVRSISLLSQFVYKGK

[2] = biological target: T2, exo1-D173A,G236D (Saccharomyces cerevisiae) (UniProt P39875); assay: filter binding; conditions: no added metal, 0.01 mM EDTA, very weak binding, 15 nM DNA, 35 mM NaCl, 20 mM Tris pH 7.5, 0.04 mg/ml BSA, 0.1 mM DTT, 60 ul, 10 min at 30 C, KOH-treated nitrocellulose filter binding, recombinant protein, protein details: FLAG, label: 5'-32P on AO3144 (8% labeled)
T2 sequence (looked up, limits assumed): T1 sequence (looked up, limits assumed) with G236D

Sequence	binding result [1]	binding result [2]
ACAGCTACCGAATTCTGACTTGCTAGGACATCTTTGCCCACGTTGACCC / GGGTCAACGTGGGCAAAGATGTCCTAGCAAGTCAGAATTCGGTAGCGTG [homoduplex (AO3878 annealed to AO3144)]	binds more weakly	binds more weakly
ACAGCTACCGAATTCTGACTTGCTAGGACATCTTTGCCCACGTTGACCC / TCGATAGTCTCTAGATAGCATGTCCTAGCAAGTCAGAATTCGGTAGCGTG / GGGTCAACGTGGGCAAAG [19 nt 5' flap substrate (AO3145 + AO3940 annealed to AO3144)]		binds more weakly

Reference: paper PMC10153752, “Exo1 protects DNA nicks from ligation to promote crossover formation during meiosis”
